PubChem BioAssay AID180 (DTP/NCI, 2004)
The list shows only some results of the screen, not a fair sample: it covers a few groups of compounds. Not every dose and run of a compound is shown. T/C is the treated group as % of the vehicle group. Some entries show no survivor count and are marked so; the dose need not have been tolerated. Schedule codes are those of the source, read here as Q, the interval in days (D) or hours (H), X, the number of doses. Some doses were run more than once; the results are listed from low to high.

Tested on: BDF1 mice, Adenocarcinoma 755 s.c., tumor weight T/C
Experiment: NCI In Vivo Anticancer Drug Screen. Data for tumor model Adenocarcinoma 755 (subcutaneous) in B6D2F1 (BDF1) mice
Conditions: T/C endpoint: mean tumor weight, schedule: Q01DX011 (ip), evaluation day not shown, higher T/C = larger tumour
Experimental: The antitumor activity of compounds was measured in mice bearing transplantable tumors. Survival or tumor size were measured and the results are expressed as the measurement made in the treated group (T) divided by the measurement made in the vehicle treated control group (C). The tumor model used in this assay is Adenocarcinoma 755 (subcutaneous) in B6D2F1 (BDF1) mice

Cc1ccc2nc(CN(CCCl)CCCl)[nH]c2c1
T/C (dose: 2.5 mg/kg/injection, vehicle: carboxymethylcellulose (CMC)): 78 % of control [survivor count not shown] | T/C (dose: 2.5 mg/kg/injection, vehicle: methylcellulose (MC)): 76 % of control [survivor count not shown] | T/C (dose: 5.0 mg/kg/injection, vehicle: carboxymethylcellulose (CMC)): 93 % of control [survivor count not shown] | T/C (dose: 5.0 mg/kg/injection, vehicle: methylcellulose (MC)): 122 % of control [survivor count not shown] | T/C (dose: 10.0 mg/kg/injection, vehicle: carboxymethylcellulose (CMC)): 117 % of control [survivor count not shown] | T/C (dose: 10.1 mg/kg/injection, vehicle: methylcellulose (MC)): 56 % of control [survivor count not shown] | T/C (dose: 20.0 mg/kg/injection, vehicle: carboxymethylcellulose (CMC)): 60 % of control [survivor count not shown]

ClCCNC(CCl)CCl
T/C (dose: 0.78 mg/kg/injection, vehicle: carboxymethylcellulose (CMC)): 69 % of control [survivor count not shown] | T/C (dose: 1.56 mg/kg/injection, vehicle: carboxymethylcellulose (CMC)): 74 % of control [survivor count not shown] | T/C (dose: 3.12 mg/kg/injection, vehicle: carboxymethylcellulose (CMC)): 94 % of control [survivor count not shown] | T/C (dose: 6.25 mg/kg/injection, vehicle: carboxymethylcellulose (CMC)): 33 [survivor count not shown] and 68 % of control [survivor count not shown] | T/C (dose: 12.5 mg/kg/injection, vehicle: carboxymethylcellulose (CMC)): 39 % of control [survivor count not shown] | T/C (dose: 25.0 mg/kg/injection, vehicle: carboxymethylcellulose (CMC)): 13 % of control [survivor count not shown] | T/C (dose: 25.0 mg/kg/injection, vehicle: saline): 86 % of control [survivor count not shown] | T/C (dose: 50.0 mg/kg/injection, vehicle: saline): 35 % of control [survivor count not shown] | T/C (dose: 100.0 mg/kg/injection, vehicle: saline): 1 % of control [survivor count not shown]

CCCCOc1cccc(N(CCCl)CCCl)c1
T/C (dose: 75.0 mg/kg/injection, vehicle: methylcellulose (MC)): 54 [survivor count not shown] and 79 % of control [survivor count not shown] | T/C (dose: 150.0 mg/kg/injection, vehicle: methylcellulose (MC)): 45 [survivor count not shown] and 90 % of control [survivor count not shown] | T/C (dose: 300.0 mg/kg/injection, vehicle: methylcellulose (MC)): 17 [survivor count not shown] and 68 % of control [survivor count not shown] | T/C (dose: 600.0 mg/kg/injection, vehicle: methylcellulose (MC)): 85 % of control [survivor count not shown]

Nc1ncnc2c1ncn2CCN(CCCl)CCCl
T/C (dose: 3.7 mg/kg/injection, vehicle: carboxymethylcellulose (CMC)): 60 % of control [survivor count not shown] | T/C (dose: 7.5 mg/kg/injection, vehicle: carboxymethylcellulose (CMC)): 21 % of control [survivor count not shown]

Oc1ccc(Cl)cc1CN(CCCl)CCCl
T/C (dose: 1.5 mg/kg/injection, vehicle: methylcellulose (MC)): 65 % of control [survivor count not shown] | T/C (dose: 2.3 mg/kg/injection, vehicle: methylcellulose (MC)): 56 % of control [survivor count not shown] | T/C (dose: 2.8 mg/kg/injection, vehicle: saline): 105 % of control [survivor count not shown] | T/C (dose: 3.5 mg/kg/injection, vehicle: methylcellulose (MC)): 56 % of control [survivor count not shown] | T/C (dose: 5.3 mg/kg/injection, vehicle: methylcellulose (MC)): 27 % of control [survivor count not shown] | T/C (dose: 5.5 mg/kg/injection, vehicle: saline): 86 % of control [survivor count not shown] | T/C (dose: 8.0 mg/kg/injection, vehicle: methylcellulose (MC)): 33 % of control [survivor count not shown] | T/C (dose: 11.0 mg/kg/injection, vehicle: saline): 25 % of control [survivor count not shown] | T/C (dose: 12.0 mg/kg/injection, vehicle: methylcellulose (MC)): 26 % of control [survivor count not shown] | T/C (dose: 18.0 mg/kg/injection, vehicle: methylcellulose (MC)): 19 % of control [survivor count not shown] | T/C (dose: 27.0 mg/kg/injection, vehicle: methylcellulose (MC)): 19 % of control [survivor count not shown]

O=C(O)COc1cccc(N(CCCl)CCCl)c1
T/C (dose: 11.25 mg/kg/injection, vehicle: methylcellulose (MC)): 58 % of control [survivor count not shown] | T/C (dose: 22.5 mg/kg/injection, vehicle: methylcellulose (MC)): 30 % of control [survivor count not shown] | T/C (dose: 45.0 mg/kg/injection, vehicle: methylcellulose (MC)): 11 % of control [survivor count not shown] | T/C (dose: 90.0 mg/kg/injection, vehicle: methylcellulose (MC)): 5 % of control [survivor count not shown]

O=C(O)CCCCc1ccc(N(CCCl)CCCl)cc1
T/C (dose: 2.0 mg/kg/injection, vehicle: saline): 61 % of control [survivor count not shown] | T/C (dose: 4.0 mg/kg/injection, vehicle: saline): 76 % of control [survivor count not shown] | T/C (dose: 8.0 mg/kg/injection, vehicle: saline): 70 % of control [survivor count not shown] | T/C (dose: 16.0 mg/kg/injection, vehicle: saline): 81 % of control [survivor count not shown]

CC(Cl)CN(CCCl)P1(=O)NCCCO1 (stereo not given)
T/C (dose: 11.0 mg/kg/injection, vehicle: methylcellulose (MC)): 75 % of control [survivor count not shown] | T/C (dose: 22.0 mg/kg/injection, vehicle: methylcellulose (MC)): 54 % of control [survivor count not shown] | T/C (dose: 44.0 mg/kg/injection, vehicle: methylcellulose (MC)): 75 % of control [survivor count not shown] | T/C (dose: 88.0 mg/kg/injection, vehicle: methylcellulose (MC)): 19 % of control [survivor count not shown] | T/C (dose: 100.0 mg/kg/injection, vehicle: methylcellulose (MC)): 64 % of control [survivor count not shown]

O=C(O)C(=O)Cc1ccc(N(CCCl)CCCl)cc1
T/C (dose: 1.5 mg/kg/injection, vehicle: carboxymethylcellulose (CMC)): 121 % of control [survivor count not shown] | T/C (dose: 3.0 mg/kg/injection, vehicle: carboxymethylcellulose (CMC)): 105 % of control [survivor count not shown] | T/C (dose: 6.0 mg/kg/injection, vehicle: carboxymethylcellulose (CMC)): 70 % of control [survivor count not shown] | T/C (dose: 12.0 mg/kg/injection, vehicle: carboxymethylcellulose (CMC)): 20 % of control [survivor count not shown]
